Measurements reported in PubChem BioAssay AID2417 (National Center for Advancing Translational Sciences (NCATS), 2010).
The whole screen tested about 140,000 compounds, of which about 4,300 (3.1%) were called active. This list was built around the results that the source calls inconclusive (neither active nor inactive); the mix of calls is not that of the screen.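 How the source made its calls: active means readout at or below -70, meaning at least 70% loss of cells showing the perinucleolar compartment, a nuclear body marking cancer cells; inconclusive means readout between -30 and a set limit; inactive means the rest.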

experiment: High Content Assay for Compounds that inhibit the Assembly of the Perinucleolar Compartment; details: PC3M PTB-GFP, PNC prevalence imaging, 16 h; at 10 µM; hits give low values;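 further: plate controls were DMSO wells for no effect and camptothecin positive control wells for full effect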
Outline: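 Read-out is percentage of cells bearing a perinucleolar compartment, from automated 20x imaging of fixed, Hoechst-stained PC3M PTB-GFP cells. Cells were seeded 4 h, then exposed 16 h to compound (23 nl of library stock) in duplicate plates.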

Compound	activity change (PNC), negative = inhibition
CC1(C)CC(=O)C(N=Nc2c(Cl)cc(Cl)cc2Cl)=C(O)C1	inconclusive: -42%
CC(C)NC(=O)c1onc(CSc2ccc(F)cc2)c1C(=O)O	inactive: 55.1%
COc1ccc(-c2cc(N3CCCC3)n3ncnc3n2)cc1	inactive: 9.09%
O=C(NCc1ccncc1)Nc1cccc(Cl)c1	inconclusive: -44.6%
Cc1ccc(S(=O)(=O)N/N=C/c2cn(C)nc2C)cc1	inactive: 29.7%
COC(=O)c1[nH]c2ccc(Cl)cc2c1NC(=O)CCN1CCN(C2CCCCC2)CC1	inconclusive: -40.1%
O=C(Nc1nc2ccccc2s1)C1CCCO1 (stereo not given)	inconclusive: -33.4%
COc1cc(OC)nc(NC(=O)CS(=O)(=O)c2ccccc2)n1	active: -119%
O=C(O)c1ccc(/C=N/NC(=O)c2cc(-c3cccs3)nc3ccccc23)cc1	active: -107%
S=C(NCC1CCCO1)Nc1ccc(Cl)cc1Cl (stereo not given)	inconclusive: -59%
O=C(O)C1CC=CCC1C(=O)Nc1cccc(Cl)c1 (stereo not given)	inactive: 65%
CCCCCCCCCC(=O)N/N=C(\C)c1cccnc1	inconclusive: -42.4%
Fc1ccc(Nc2ccnc(Nc3ccc(F)cc3)n2)cc1	inactive: 5.14%
CCOc1ccccc1OCCCC(=O)Nc1sccc1C(N)=O	inconclusive: -47.9%
O=C(Nc1ccc(-n2cnnn2)cc1)C1CCCCC1	inactive: 20.8%
O=C(NC(=S)Nc1nc2ccccc2s1)c1cccs1	active: -100%
O=C(Nc1cccnc1)c1ccccc1-c1nc(-c2ccccc2F)no1	inactive: -25.5%
COc1cccc(C(=O)Nc2ccc(NC(=O)c3ccco3)nc2)c1	inconclusive: -51.1%
O=C(O)c1cc2nc3c(c(C(F)(F)F)n2n1)CCc1ccccc1-3	active: -86.6%
COc1cc(/C=C(\NC(C)=O)C(=O)Nc2cccc(O)c2)ccc1OC(C)=O	inconclusive: -67.1%
C=C(C)C1CC=C(CN2CCC(O)CC2)CC1 (stereo not given)	inconclusive: -38.8%
CCN(CC)CCOC(=O)c1cccc(Cl)c1	inconclusive: -76.7%
Cc1ccc(C2C3=C(CC(C)(C)CC3=O)Nc3n[nH]c(C)c32)cc1 (stereo not given)	inconclusive: -35.6%
Cc1ccc(NC(=O)Nc2ccc(Cl)cc2)c(Br)c1	inconclusive: -34%

Compound	activity change (PNC), negative = inhibition
CCCCCCCN1N=C(C)C(C(=O)c2ccccc2)C1=O (stereo not given)	active: -84.8%
COc1ccc(CCNC(=O)C(=O)NCCOc2ccccc2)cc1OC	inconclusive: -35.5%
COc1cccc(NC(=O)Nc2ccc3c(c2)nnn3C)c1	inconclusive: -61.3%
Cn1c(=O)n(C)c2cc(/C=N/NC(=O)c3ccc(Cl)cc3Cl)ccc21	inactive: 64.2%
Nc1ccc2nc(-c3cccnc3)[nH]c2c1	inconclusive: -43.6%
CCOC(=O)N1CCN(C(=O)Cc2cccs2)CC1	inconclusive: -54.4%
COCCNC(=O)C(C)OC(=O)c1cc2sccc2n1C (stereo not given)	inconclusive: -74.3%
CC(=O)/C(=N\Nc1ccccc1)Sc1nncn1C	inconclusive: -61.5%
CCN(CCNC(=O)C1CCCN(S(=O)(=O)c2cnc[nH]2)C1)c1ccccc1 (stereo not given)	inactive: -4.94%
CC(C)(C)c1csc(NC(=O)c2cccs2)n1	inconclusive: -47.6%
Cc1ccc(NC(=O)CN2CCC3(O)CCCCC3C2c2ccc3c(c2)OCO3)c(C)c1 (stereo not given)	active: -90%
COc1ccc(N=C(N)SCc2ccccn2)cc1	inconclusive: -33%
COc1ccc(N2C(=O)CC(Sc3ncccc3C(=O)O)C2=O)cc1 (stereo not given)	inactive: -3.07%
Cc1ccccc1CNC(=O)c1ccc(Cl)c([N+](=O)[O-])c1	inactive: 42.2%
N#CC(C#N)=Cc1cn(-c2ncc(C(F)(F)F)cc2Cl)c2ccccc12	inactive: -12.7%
CC1=C/C(=N\OS(=O)(=O)c2ccccc2)C(C)=CC1=O	inactive: -2.52%
O=C(NCc1ccco1)c1cc2n(n1)C(C(F)(F)F)CC(c1ccc(Cl)c(Cl)c1)N2 (stereo not given)	inconclusive: -43.2%
COc1ccc(NC(=O)CSc2c3c(nc4cc(Cl)ccc24)CCCC3)cc1OC	inconclusive: -46.7%
CCOC(=O)c1ccc(NC(=O)CSc2nnc(C3CCCCC3)n2C)cc1	inconclusive: -47.2%
CCC(Oc1ccccc1)C(=O)Nc1ccc(S(=O)(=O)Nc2cnc3ccccc3n2)cc1 (stereo not given)	inconclusive: -62.2%
Cc1cccc(C)c1OCC(O)CN1CCC(CN2C(=O)c3cccc4cccc(c34)C2=O)CC1 (stereo not given)	inconclusive: -44.2%
Cc1cc(Cl)ccc1OCCCC(=O)NCc1ccncc1	inconclusive: -36.4%
COc1ccc2cc(C(=O)N/N=C/c3sc4ccccc4c3O)ccc2c1	inconclusive: -67.5%
Cc1ccc(N=C2NC(=O)/C(=C/C=C/c3ccco3)S2)cc1	inactive: 22%

Some of the entries so far, with each value named:
COc1cccc(NC(=O)Nc2ccc3c(c2)nnn3C)c1
  activity change (PNC), negative = inhibition: inconclusive: -61.3%
Cn1c(=O)n(C)c2cc(/C=N/NC(=O)c3ccc(Cl)cc3Cl)ccc21
  activity change (PNC), negative = inhibition: inactive: 64.2%
Nc1ccc2nc(-c3cccnc3)[nH]c2c1
  activity change (PNC), negative = inhibition: inconclusive: -43.6%

Continued:

Compound	activity change (PNC), negative = inhibition
O=C(Nc1ccc2c(c1)CCC2)c1cc2ccccc2o1	inconclusive: -64.8%
COC(=O)c1ccc(NS(=O)(=O)c2cccc3cccnc23)cc1	inactive: -28.3%
Cn1cc2c(=O)n(/N=C/c3ccccc3)cnc2n1	active: -82.3%
COc1ccc(/C=C2/CCOC2=O)cc1	inactive: 23.1%
O=C(Nc1nnc(SCC(=O)N2CCCc3ccccc32)s1)c1ccc2ccccc2c1	inconclusive: -35.8%
COc1cc(C(=O)Nc2ccc(O)cc2C(=O)O)ccc1OC(C)=O	inconclusive: -32.5%
COc1cc(C(=O)N2CCC(O)(c3ccccc3)CC2)cc(OC)c1OC	inactive: 6.74%
Cc1nnc(NC(=O)c2sc3ccccc3c2Cl)s1	inactive: -12.6%
CC(C(=O)O)c1cccc(C(=O)c2ccccc2)c1 (stereo not given)	inconclusive: -41.5%
O=C(C1CCCN(Cc2cccs2)C1)N1CCCCCC1 (stereo not given)	inactive: 15.9%
O=C1c2ccccc2C(=O)N1c1ccc(Cl)cc1	inconclusive: -32.9%
Cc1ccc(C(C(=O)NC2CCCC2)N(Cc2ccc(F)cc2)C(=O)c2csnn2)o1 (stereo not given)	inconclusive: -34.5%
Nc1cccc(C(=O)Nc2ccco2)c1	inconclusive: -32%
COc1cc(NC(=O)CN2CCN(c3ccccc3F)CC2)c(C)cc1[N+](=O)[O-]	inconclusive: -80%
CCOC(=O)CSc1nc(-c2ccccc2)cc(C(F)(F)F)n1	inconclusive: -74.7%
Cc1cc(C(=O)COC(=O)c2cccs2)c(C)n1-c1c(C)n(C)n(-c2ccccc2)c1=O	active: -127%
CC1=CC(C)=Nc2ccccc2N1	inactive: 2.48%
O=C(NCCc1c[nH]c2ccccc12)c1c(Cl)nc2sccn12	inconclusive: -54.5%
Cc1c(-n2c(SCC(=O)O)nnc2-c2ccccc2Cl)c(=O)n(-c2ccccc2)n1C	active: -97.1%
O=C(Nn1c(O)c(C=C2N=c3ccccc3=N2)sc1=S)c1cccc(Cl)c1	inconclusive: -57.6%
O=S(=O)(c1ccc(Cl)nc1)N(Cc1ccccc1)Cc1ccccc1	inconclusive: -42.7%
C=CCN1C(=O)C(Cc2cccc(Cl)c2)S/C1=N/N=C/c1ccco1 (stereo not given)	inconclusive: -75.6%
CC(=O)Nc1ccc2c(c1)nc1n2CCOC1	inconclusive: -47.1%
CC1CCCC(NC(=O)COC(=O)c2ccc(S(=O)(=O)N3CCOCC3)cc2)C1C (stereo not given)	inconclusive: -34.6%

Grouped by structure: the compounds so far containing a nitro group on carbon
Compound	activity change (PNC), negative = inhibition
Cc1ccccc1CNC(=O)c1ccc(Cl)c([N+](=O)[O-])c1	inactive: 42.2%
COc1cc(NC(=O)CN2CCN(c3ccccc3F)CC2)c(C)cc1[N+](=O)[O-]	inconclusive: -80%

Following part:

Compound	activity change (PNC), negative = inhibition
O=C(COC(=O)c1cccs1)NCc1ccco1	inactive: -5.73%
COc1ccc(CN(C(=O)CNC(=O)c2ccco2)C(C(=O)NC2CCCC2)c2ccco2)cc1 (stereo not given)	inconclusive: -36.3%
O=C(CSC1CC(=O)N(CCc2ccccc2)C1=O)Nc1cccc(Cl)c1 (stereo not given)	inactive: -2.15%
Cc1cc(C)n(-c2ccc(C(=O)Nc3cc(C(F)(F)F)ccc3N3CCOCC3)cc2)n1	inactive: -18.1%
COc1ccc(N2C(=O)S[C@@H]3CS(=O)(=O)C[C@@H]32)cc1	active: -113%
O=C(c1ccccc1)N1CCN(C2CCCCCC2)CC1	inconclusive: -30.1%
Cc1n[nH]c(C)c1S(=O)(=O)N1CCCCCC1	inconclusive: -36.3%
Cc1cc(C)cc(N2CN=C3SCC(=O)N3C2)c1	inconclusive: -46.9%
O=C(O)CC1(CC(=O)Nc2ccc3ccccc3c2)CCCCC1	inactive: -1.1%
COc1ccccc1NC(=O)CCN1CC(C)OC(C)C1 (stereo not given)	inconclusive: -37.9%
COC(=O)c1c(N)n(-c2ccc(N3CCOCC3)cc2)c2nc3ccccc3nc12	inactive: 14.5%
CNc1ccccc1C(=O)OCC(C)=O	inactive: -16.6%
COc1ccc(NS(=O)(=O)c2ccc(-n3nnc4ccccc43)c([N+](=O)[O-])c2)cc1	inactive: 22.5%
CCCCN(c1ccccc1)S(=O)(=O)c1ccc2c(c1)CCN2C(=O)CCC(=O)O	active: -83.1%
CCOc1ccc(C(=O)N[C@H](C(=O)Nc2cccc(S(=O)(=O)N3CCCCC3)c2)C(C)C)cc1	inconclusive: -58.2%
C=C(C)CSc1cc(C)c(C#N)c2nc3ccccc3n12	active: -93.2%
CCOc1ccccc1C(=O)NCCCn1ccnc1	inactive: 15.6%
Cn1cc(Cl)c(C(=O)N/N=C/c2ccc(OS(=O)(=O)c3ccccc3)cc2)n1	active: -100%
COc1cccc(C(=O)NC2CC3CCCC(C2)N3CC(=O)Nc2ccccc2)c1 (stereo not given)	inconclusive: -32%
Cc1nn(CCOc2ccccc2)c(=O)n1-c1c(F)cccc1F	inconclusive: -57.6%
COc1ccc(NC(=O)c2ccc3ccccc3c2)cc1NS(=O)(=O)c1ccc(F)cc1	inactive: 33.1%
CN(C)c1oc(-c2ccccc2Cl)nc1C#N	inactive: 38.6%
N#C/C(=C\c1ccc(N2CCCCC2)o1)C(=O)Nc1cccc(Br)c1	active: -108%
